Results as given in patent US5225543A, “Receptors method for purification of G protein-linked” (priority 1991, dated 1993).

Tested on: streptavidin
Assay: Effect of detergent on binding of solubilized R:L complex to streptavidin (Table 2B)
Settings: final column of Table 2B
Procedure: The final determination is whether the detergent interferes with binding of the receptor:[^125 I]BioS-28. […] R:L complex in the supernatants ("non-bound to SA") after this time is measured by the charcoal/dextran assay. The % of non-bound, intact R:L complex is calculated from the ratio (R:L non-bound to SA/original R:L in the 100,000×g supernatant). The % of intact R:L complex bound to SA is calculated by subtracting % non-bound R:L from 100%. Finally, % of original R:L bound to SA=% R:L bound to SA×% solubilization of original membrane-bound R:L complex.

SMILES: C[C@H](CCC(=O)O)[C@H]1CC[C@H]2[C@@H]3CC[C@@H]4C[C@H](O)CC[C@]4(C)[C@H]3C[C@H](O)[C@]12C [Deoxycholate]
- overall efficiency in recovering receptor: satisfactory results

SMILES: C[C@@H]1CC[C@@]2(OC1)O[C@H]1[C@@H](O)[C@H]3[C@@H]4CC[C@H]5C[C@@H](O[C@@H]6O[C@H](CO)[C@H](O[C@@H]7O[C@H](CO)[C@@H](O)[C@H](O[C@@H]8OC[C@@H](O)[C@H](O)[C@H]8O)[C@H]7O[C@@H]7O[C@H](CO)[C@H](O)[C@H](O[C@@H]8O[C@H](CO)[C@@H](O)[C@H](O)[C@H]8O)[C@H]7O)[C@H](O)[C@H]6O)[C@H](O)C[C@]5(C)[C@H]4CC[C@]3(C)[C@H]1[C@@H]2C [Digitonin]
- overall efficiency in recovering receptor: satisfactory results
